Reference: paper PMC3355077
These are yes or no findings as the source states them, for the method shown. Binding seen in cells or lysates may run through a third protein. Some results given as binding are weak or reduced against the parent protein; the word gives no strength. Sequences can lack the tags named with a protein.

The chains behind the UniProt entries cited, without tags or fusion partners. Where a name states a change or a piece, a line headed by the entry shows the natural chain unless it says otherwise. A line that says so, or that is headed by a name, gives the form on record, which may keep a tag or linker.
GST-p52 (Q99JF8, form named): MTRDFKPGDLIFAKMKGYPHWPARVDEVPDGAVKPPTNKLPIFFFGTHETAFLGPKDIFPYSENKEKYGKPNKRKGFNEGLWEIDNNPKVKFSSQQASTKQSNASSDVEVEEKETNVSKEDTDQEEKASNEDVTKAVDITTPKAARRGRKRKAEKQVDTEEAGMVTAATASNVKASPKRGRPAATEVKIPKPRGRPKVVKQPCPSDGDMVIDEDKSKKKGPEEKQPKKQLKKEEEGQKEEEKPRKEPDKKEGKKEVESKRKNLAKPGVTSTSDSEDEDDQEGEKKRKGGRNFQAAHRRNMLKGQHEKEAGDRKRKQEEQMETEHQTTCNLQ

B1: T7-SRSF3 (protein, UniProt P84103 1-164)
chain: MHRDSCPLDCKVYVGNLGNNGNKTELERAFGYYGPLRSVWVARNPPGFAFVEFEDPRDAADAVRELDGRTLCGCRVRVELSNGEKRSRNRGPPPSWGRRPRDDYRRRSPPPRRRSPRRRSFSRSRSRSLSRDRRRERSLSRERNHKPSRSFSRSRSRSRSNERK
B2: GFP-SRSF2 (protein, UniProt Q01130 1-221)
chain: MSYGRPPPDVEGMTSLKVDNLTYRTSPDTLRRVFEKYGRVGDVYIPRDRYTKESRGFAFVRFHDKRDAEDAMDAMDGAVLDGRELRVQMARYGRPPDSHHSRRGPPPRRYGGGGYGRRSRSPRRRRRSRSRSRSRSRSRSRSRYSRSKSRSRTRSRSRSTSKSRSARRSKSKSSSVSRSRSRSRSRSRSRSPPPVSKRESKSRSRSKSPPKSPEEEGAVSS

Molecular target: GST-p52 (mouse) (UniProt Q99JF8)
Test: pull-down; GST-p52 or GST-PWWP on glutathione beads incubated with lysates of 293T cells overexpressing tagged SR proteins, GST lysis buffer, 5 washes; immunoblot with αT7 or αGFP; only the target purified

| Binder | binding |
| --- | --- |
| B1 | binds |
| B2 | no binding |
